Paper PMC7615648
These are yes or no findings as the source states them, for the method shown. Some entries that bind do so weakly or less than the wild type. Where a sequence is shown, tags or fusion partners need not be part of it.

Target: T1, His-Spt4 (S. cerevisiae) (UniProt P32914)
T1 sequence: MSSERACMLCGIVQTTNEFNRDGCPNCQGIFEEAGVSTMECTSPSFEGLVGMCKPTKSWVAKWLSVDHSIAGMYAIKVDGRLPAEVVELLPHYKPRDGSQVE
Test: co-purification; His-Spt4 and Spt5 co-expressed in Sf9; His-trap (300 mM NaCl, eluted with 250 mM imidazole), HiTrap Heparin and MonoQ salt gradients

B1: Spt5 (protein, UniProt P27692 1-1063)
chain: MSDNSDTNVSMQDHDQQFADPVVVPQSTDTKDENTSDKDTVDSGNVTTTESTERAESTSNIPPLDGEEKEAKSEPQQPEDNAETAATEQVSSSNGPATDDAQATLNTDSSEANEIVKKEEGSDERKRPREEDTKNSDGDTKDEGDNKDEDDDEDDDDDDDDEDDDDEAPTKRRRQERNRFLDIEAEVSDDEDEDEDEEDSELVREGFITHGDDEDDEASAPGARRDDRLHRQLDQDLNKTSEEDAQRLAKELRERYGRSSSKQYRAAAQDGYVPQRFLLPSVDTATIWGVRCRPGKEKELIRKLLKKKFNLDRAMGKKKLKILSIFQRDNYTGRIYIEAPKQSVIEKFCNGVPDIYISQKLLIPVQELPLLLKPNKSDDVALEEGSYVRIKRGIYKGDLAMVDQISENNLEVMLKIVPRLDYGKFDEIDPTTQQRKSRRPTFAHRAPPQLFNPTMALRLDQANLYKRDDRHFTYKNEDYIDGYLYKSFRIQHVETKNIQPTVEELARFGSKEGAVDLTSVSQSIKKAQAAKVTFQPGDRIEVLNGEQRGSKGIVTRTTKDIATIKLNGFTTPLEFPISTLRKIFEPGDHVTVINGEHQGDAGLVLMVEQGQVTFMSTQTSREVTITANNLSKSIDTTATSSEYALHDIVELSAKNVACIIQAGHDIFKVIDETGKVSTITKGSILSKINTARARVSSVDANGNEIKIGDTIVEKVGSRREGQVLYIQTQQIFVVSKKIVENAGVFVVNPSNVEAVASKDNMLSNKMDLSKMNPEIISKMGPPSSKTFQQPIQSRGGREVALGKTVRIRSAGYKGQLGIVKDVNGDKATVELHSKNKHITIDKHKLTYYNREGGEGITYDELVNRRGRVPQARMGPSYVSAPRNMATGGIAAGAAATSSGLSGGMTPGWSSFDGGKTPAVNAHGGSGGGGVSSWGGASTWGGQGNGGASAWGGAGGGASAWGGQGTGATSTWGGASAWGNKSSWGGASTWASGGESNGAMSTWGGTGDRSAYGGASTWGGNNNNKSTRDGGASAWGNQDDGNRSAWNNQGNKSNYGGNSTWGGH
With B1 the binding was “binds”.
